Assay results published in paper PMC5966357.
Results are given in words; binding and its absence hold for the method and conditions named. In cells and extracts the contact can be indirect. Some binding calls cover weakened binding; strength is not graded here.

Amino acid sequences for entries named in this document (tags omitted). A change or cut given only in a name is not applied to a line headed by its entry. Residues count along the entry.
UniProt P07355: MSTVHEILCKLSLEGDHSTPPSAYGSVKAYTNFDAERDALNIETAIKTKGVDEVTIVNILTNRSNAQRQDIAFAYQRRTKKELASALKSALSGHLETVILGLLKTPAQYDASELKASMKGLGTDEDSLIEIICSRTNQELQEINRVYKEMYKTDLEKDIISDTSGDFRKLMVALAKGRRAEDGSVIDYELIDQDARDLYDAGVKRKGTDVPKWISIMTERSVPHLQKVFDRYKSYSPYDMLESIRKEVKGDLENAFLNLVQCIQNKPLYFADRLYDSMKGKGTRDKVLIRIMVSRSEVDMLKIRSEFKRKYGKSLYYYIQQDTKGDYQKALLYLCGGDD
UniProt P19838, residues 1-433: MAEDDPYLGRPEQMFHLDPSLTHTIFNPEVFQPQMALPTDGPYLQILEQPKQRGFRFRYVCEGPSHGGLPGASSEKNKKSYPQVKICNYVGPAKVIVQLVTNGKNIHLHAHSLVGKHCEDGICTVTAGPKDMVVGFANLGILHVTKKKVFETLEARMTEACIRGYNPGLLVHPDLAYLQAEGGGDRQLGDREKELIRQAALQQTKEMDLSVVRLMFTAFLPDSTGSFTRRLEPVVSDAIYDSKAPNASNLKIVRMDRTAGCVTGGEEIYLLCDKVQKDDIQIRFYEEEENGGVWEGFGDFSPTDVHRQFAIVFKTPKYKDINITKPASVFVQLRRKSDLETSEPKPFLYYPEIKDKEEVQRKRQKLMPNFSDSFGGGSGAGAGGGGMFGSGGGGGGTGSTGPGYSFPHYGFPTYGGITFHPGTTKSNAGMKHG

Key:
[1] = molecular target: Annexin A2-K302A-myc (human) (UniProt P07355); test: co-IP; HepG2 whole-cell lysate (untransfected, or transfected with Annexin A2-WT-myc or Annexin A2-K302A-myc); 2 mg lysate with anti-Annexin A2, anti-p50 or anti-C-myc, protein A/G beads, 4°C, immunoblot; cells treated for 12 h with G-Rg5 (6 μmol/L), G-Rk1 (6 μmol/L), PMA (100 ng/mL) or etoposide (25 μg/mL)
[2] = molecular target: Annexin A2 (endogenous, HepG2) (human (endogenous in HepG2)) (UniProt P07355); test: as above
[3] = molecular target: Annexin A2-WT-myc (human) (UniProt P07355); test: as above
[4] = molecular target: non-tagged Annexin A2-K302A (pEXS-Annexin A2-K302A), prokaryotic cell-expressed (human) (UniProt P07355); test: co-IP; in vitro: 1 mg E. coli BL21 (DE3) lysate containing Annexin A2 mixed with 1 mg lysate containing p50, 4°C overnight, with or without G-Rg5 or G-Rk1; immunoprecipitation and immunoblot as for the in vivo assay
[5] = molecular target: non-tagged Annexin A2 (pEXS-Annexin A2-WT), prokaryotic cell-expressed (human) (UniProt P07355); test: as above

Substance | binding [1] | binding [2] | binding [3] | binding [4] | binding [5]
NF-κB p50 subunit (endogenous, HepG2) (from UniProt P19838 1-433) | binds | binds | binds |  | 
non-tagged NF-κB p50 subunit (pEXS-p50), prokaryotic cell-expressed (from UniProt P19838 1-433) |  |  |  | binds | binds
